Data taken from US20210380978.
The exact form of at least one protein or probe is not confirmed. Results from cells or extracts need not show a direct contact. The comparison behind a weaker result is the experiment's own reference, which may not be listed here. Tags and fusion partners may be left off the protein sequences shown.

Biological target: T1, HNRNPH1 (endogenous, cell lysate) (Homo sapiens) (UniProt P31943)
T1 sequence (looked up, limits assumed): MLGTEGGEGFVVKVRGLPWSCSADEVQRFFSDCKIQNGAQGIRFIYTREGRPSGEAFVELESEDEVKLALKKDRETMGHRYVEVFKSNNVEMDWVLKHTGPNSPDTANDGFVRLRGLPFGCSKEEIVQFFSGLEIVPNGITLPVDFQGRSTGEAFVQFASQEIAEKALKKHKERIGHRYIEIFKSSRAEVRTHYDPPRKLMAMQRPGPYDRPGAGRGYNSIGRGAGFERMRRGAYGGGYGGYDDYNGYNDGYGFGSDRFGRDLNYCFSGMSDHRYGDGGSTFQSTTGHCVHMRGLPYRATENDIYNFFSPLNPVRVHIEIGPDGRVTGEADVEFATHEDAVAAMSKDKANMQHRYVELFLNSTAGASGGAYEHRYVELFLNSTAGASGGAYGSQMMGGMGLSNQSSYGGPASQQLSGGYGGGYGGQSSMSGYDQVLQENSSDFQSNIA
Experiment: pull-down
Conditions: protein in an extract

[1] = biotinylated 300-nt RNA in cell lysate, 4 C, western blot, label: biotin-16-UTP

Sequence: ATTGGCGGGGTCTCGGTGGGGGCGGGCCGGTTGCCGGGGGGAGCTGGAGTCACGTGACGGCCGGCGCGG / CTCCAGCTCCCCCCGGCAAC [INCA1 fragment F4 annealed with ASO H1B]
- binding result (ASO fully 2'-MOE and PS, ASO H1B blocks the binding site, dose-dependent reduction, label: biotin-16-UTP on F4): binds more weakly

Sequence: AUUGGCGGGGUCUCGGUGGGGGCGGGCCGGUUGCCGGGGGGAGCUGGAGUCACGUGACGGCCGGCGCGG
- binding result [1]: binds

Sequence: ATTGGCGGGGTCTCGGTGGGGGCGGGCCGGTTGCCGGGGGGAGCTGGAGTCACGTGACGGCCGGCGCGG / GCGACTATACGCGCAATATG [INCA1 fragment F4 with control ASO NC]
- binding result (ASO fully 2'-MOE and PS, control ASO has no effect on binding, label: biotin-16-UTP on F4): binds

Sequence: UGAAUAGAAGGAGGGUUGAGGGGAUAUGGUGUGGAAUGGGGGAAGGAGGAGUCUGAAAUAGAAGAAAGA
- binding result [1]: binds

Sequence: CUGGGUGGAAGUUGGGGGUGGGACGGCGCCGGGAGGCCGGGGAGGCAGCGGCGAAAGGCGGCGGGCGG
- binding result [1]: binds

Sequence: CCGCUGUGGCUGUGGUGGGCGGUAGGGGCUUUUACCGUGUGAGCUCCUUUAAUGCCGGGGUCUGCAGUG
- binding result [1]: binds
